Experimental data from patent US20220064314A1 (QLSF BIOTHERAPEUTICS, published 2022).
Where a chain is given by its changes, count along the chain named. No constants are given. Whether binding was seen depends on the method and setting. Some results given as binding are weak or reduced against the parent protein; the word gives no strength.

Sequences of proteins named here, by UniProt entry; tags and fusion partners are left off. Residues count along the entry.
UniProt Q07011, residues 24-255: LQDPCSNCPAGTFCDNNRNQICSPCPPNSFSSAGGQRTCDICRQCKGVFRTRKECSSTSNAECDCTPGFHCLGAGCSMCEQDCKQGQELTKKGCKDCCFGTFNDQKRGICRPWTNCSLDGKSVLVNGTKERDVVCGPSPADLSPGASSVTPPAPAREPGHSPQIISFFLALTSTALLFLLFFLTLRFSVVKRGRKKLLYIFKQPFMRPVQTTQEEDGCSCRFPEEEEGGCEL

B1: cAb 137QL.F1.1.G2 (antibody, human IgG2, V domains shown)
VH: QVQLQQSGAELARPGASVKMSCKASGYTFTFYTMHWLKQRPGQGLEWIGYINPSSGYTNYNQKFTDKATLTADKSSSTAYMQLSSLTSEDSAVYYCARSDGSSSKWYFDVWGTGTTVTVSS
VL: QIVLSQSPTILSASPGEKVTMTCRASSSVSYIHWYQQKPGSSPKAWISATSNLASGVPARFSGSGSGTSYSLTISRVEAEDAATYYCQQWSSNPFTFGSGTKLEIK
notes: Chimeric antibody; also called Chimeric F1.1; cAb F1.1.G2
B2: huF1.1.G2.2.4 (antibody, human IgG2, kappa, V domains shown)
VH: QVQLVQSGAEVKKPGASVKVSCKASGYTFTFYTMHWLRQAPGQGLEWIGYINPSSGYTNYNQKFTDRATLTADTSTSTAYMELSSLRSEDTAVYYCARSDGSSSKWYFDVWGQGTTVTVSS
VL: EIVLTQSPDFQSATPKEKVTITCRASSSVSYIHWYQQKPGSSPKAWISATSNLASGVPSRFSGSGSGTSYTLTINRVEAEDAATYYCQQWSSNPFTFGQGTKLEIKR
notes: also called huF1.1.2.4
B3: huF1.1.G2.4.4 (antibody, human IgG2, kappa, V domains shown)
VH: B2 VH with V20M, R38K, T74K
VL: B2 VL
notes: also called huF1.1.4.4
B4: cAB 137QL.G28.21.G2 (antibody, human IgG2, V domains shown)
VH: EVQLQQSGAELVRPGASVKLSCTASGFNIKDYYIHWVNQRPEQGLEWIGRIDPEDGDIAYAPKFQDKATLTVDTSSNTAYLHIIGLTSEDTAVYYCTTGNYYAMDFWGQGTSVTVSS
VL: QIVLTQSPAIMSASLGERVTMTCTASSSVSSSYLHWYQQKPGSSPKLWIYSTSNLASGVPARFSGSGSGTSYSLTISSMEAEDAATYYCHQYHRSPPTFGSGTKLEIK
notes: Chimeric antibody; also called Chimeric G28.21; cAb G28.21.G2
B5: huG28.21.G2.1.4 (antibody, human IgG2, kappa, V domains shown)
VH: EVQLVQSGAEVKKPGATVKISCKASGFNIKDYYIHWVNQAPGKGLEWIGRIDPEDGDIAYAPKFQDRVTLTVDTSTDTAYLELSSLRSEDTAVYYCTTGNYYAMDFWGQGTTVTVSS
VL: QIVLTQSPATLSASPGERVTLSCTASSSVSSSYLHWYQQKPGSSPKLWIYSTSNLASGVPARFSGSGPGTSYTLTISSMEPEDAATYYCHQYHRSPPTFGQGTKLEIKR
notes: also called huG28.21.1.4
B6: huG28.21.G2.4.4 (antibody, human IgG2, kappa, V domains shown)
VH: B5 VH with V5Q, I20L, A40R, K43Q, V68A, D77N
VL: B5 VL
notes: also called huG28.21.4.4

What follows are binders tested against human 4-1BB on cells (human, UniProt Q07011 24-255) (assay: flow cytometry on 4-1BB expressing cells).

| binding | Binder |
| --- | --- |
| binds | B1 |
| binds | B2 |
| binds | B3 |
| binds | B5 |
| binds | B6 |

| Binder | binding |
| --- | --- |
| B4 | binds |
